In the supplement of paper PMC7666118:
Some of the results follow.

Protein sequences, listed by entry. Tags and fused reporters are not part of them. Lines headed by an entry give the natural chain unless they say otherwise; changes in a name come on top.
UniProt P31146: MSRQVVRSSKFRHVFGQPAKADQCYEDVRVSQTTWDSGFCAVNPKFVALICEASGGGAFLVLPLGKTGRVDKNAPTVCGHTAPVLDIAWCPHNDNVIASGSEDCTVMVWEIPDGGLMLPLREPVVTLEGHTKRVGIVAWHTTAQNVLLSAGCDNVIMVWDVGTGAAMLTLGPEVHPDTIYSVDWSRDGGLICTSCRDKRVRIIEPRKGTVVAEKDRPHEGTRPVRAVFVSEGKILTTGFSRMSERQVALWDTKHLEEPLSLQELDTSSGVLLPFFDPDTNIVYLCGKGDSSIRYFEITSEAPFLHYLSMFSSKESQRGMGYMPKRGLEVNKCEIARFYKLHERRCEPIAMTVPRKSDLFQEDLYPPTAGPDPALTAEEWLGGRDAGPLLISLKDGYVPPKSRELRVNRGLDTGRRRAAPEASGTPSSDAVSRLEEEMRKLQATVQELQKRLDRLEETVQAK
UniProt Q9HD42: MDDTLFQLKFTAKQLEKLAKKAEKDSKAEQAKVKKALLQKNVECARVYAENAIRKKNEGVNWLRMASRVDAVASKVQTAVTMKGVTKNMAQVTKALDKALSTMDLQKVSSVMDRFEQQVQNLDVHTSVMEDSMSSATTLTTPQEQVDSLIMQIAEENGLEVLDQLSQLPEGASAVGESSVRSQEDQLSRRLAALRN
UniProt P38432, whole entry: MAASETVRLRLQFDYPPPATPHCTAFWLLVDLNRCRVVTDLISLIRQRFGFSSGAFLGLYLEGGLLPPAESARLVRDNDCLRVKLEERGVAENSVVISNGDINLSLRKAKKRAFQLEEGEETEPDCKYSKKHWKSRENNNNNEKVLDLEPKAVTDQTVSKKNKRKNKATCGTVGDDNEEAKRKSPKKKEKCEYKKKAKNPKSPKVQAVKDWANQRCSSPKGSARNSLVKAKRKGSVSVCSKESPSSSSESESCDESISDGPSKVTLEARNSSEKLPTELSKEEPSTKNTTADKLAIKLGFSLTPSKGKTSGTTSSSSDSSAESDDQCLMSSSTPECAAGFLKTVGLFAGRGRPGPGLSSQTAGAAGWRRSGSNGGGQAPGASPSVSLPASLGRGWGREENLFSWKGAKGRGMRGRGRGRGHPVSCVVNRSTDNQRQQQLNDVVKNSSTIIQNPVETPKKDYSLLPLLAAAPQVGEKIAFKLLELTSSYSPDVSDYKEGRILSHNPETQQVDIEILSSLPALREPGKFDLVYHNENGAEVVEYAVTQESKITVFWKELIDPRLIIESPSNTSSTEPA
UniProt Q9NY25: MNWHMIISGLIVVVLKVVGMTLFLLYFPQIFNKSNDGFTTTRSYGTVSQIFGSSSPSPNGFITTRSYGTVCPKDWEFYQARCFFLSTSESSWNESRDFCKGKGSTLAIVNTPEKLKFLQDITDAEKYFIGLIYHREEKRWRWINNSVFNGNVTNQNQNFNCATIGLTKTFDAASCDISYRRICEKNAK
UniProt P15954, whole entry: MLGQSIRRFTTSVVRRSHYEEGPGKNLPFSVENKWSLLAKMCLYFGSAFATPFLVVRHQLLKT
UniProt O75794: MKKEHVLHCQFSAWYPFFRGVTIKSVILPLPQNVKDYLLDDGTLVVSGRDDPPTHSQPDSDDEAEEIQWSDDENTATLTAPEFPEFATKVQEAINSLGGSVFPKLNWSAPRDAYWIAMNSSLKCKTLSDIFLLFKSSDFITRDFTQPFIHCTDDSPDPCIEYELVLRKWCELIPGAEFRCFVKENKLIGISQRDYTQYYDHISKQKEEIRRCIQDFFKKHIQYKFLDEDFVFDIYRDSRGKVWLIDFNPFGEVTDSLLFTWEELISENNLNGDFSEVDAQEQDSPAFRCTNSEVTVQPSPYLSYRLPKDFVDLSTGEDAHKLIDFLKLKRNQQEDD
UniProt O15078: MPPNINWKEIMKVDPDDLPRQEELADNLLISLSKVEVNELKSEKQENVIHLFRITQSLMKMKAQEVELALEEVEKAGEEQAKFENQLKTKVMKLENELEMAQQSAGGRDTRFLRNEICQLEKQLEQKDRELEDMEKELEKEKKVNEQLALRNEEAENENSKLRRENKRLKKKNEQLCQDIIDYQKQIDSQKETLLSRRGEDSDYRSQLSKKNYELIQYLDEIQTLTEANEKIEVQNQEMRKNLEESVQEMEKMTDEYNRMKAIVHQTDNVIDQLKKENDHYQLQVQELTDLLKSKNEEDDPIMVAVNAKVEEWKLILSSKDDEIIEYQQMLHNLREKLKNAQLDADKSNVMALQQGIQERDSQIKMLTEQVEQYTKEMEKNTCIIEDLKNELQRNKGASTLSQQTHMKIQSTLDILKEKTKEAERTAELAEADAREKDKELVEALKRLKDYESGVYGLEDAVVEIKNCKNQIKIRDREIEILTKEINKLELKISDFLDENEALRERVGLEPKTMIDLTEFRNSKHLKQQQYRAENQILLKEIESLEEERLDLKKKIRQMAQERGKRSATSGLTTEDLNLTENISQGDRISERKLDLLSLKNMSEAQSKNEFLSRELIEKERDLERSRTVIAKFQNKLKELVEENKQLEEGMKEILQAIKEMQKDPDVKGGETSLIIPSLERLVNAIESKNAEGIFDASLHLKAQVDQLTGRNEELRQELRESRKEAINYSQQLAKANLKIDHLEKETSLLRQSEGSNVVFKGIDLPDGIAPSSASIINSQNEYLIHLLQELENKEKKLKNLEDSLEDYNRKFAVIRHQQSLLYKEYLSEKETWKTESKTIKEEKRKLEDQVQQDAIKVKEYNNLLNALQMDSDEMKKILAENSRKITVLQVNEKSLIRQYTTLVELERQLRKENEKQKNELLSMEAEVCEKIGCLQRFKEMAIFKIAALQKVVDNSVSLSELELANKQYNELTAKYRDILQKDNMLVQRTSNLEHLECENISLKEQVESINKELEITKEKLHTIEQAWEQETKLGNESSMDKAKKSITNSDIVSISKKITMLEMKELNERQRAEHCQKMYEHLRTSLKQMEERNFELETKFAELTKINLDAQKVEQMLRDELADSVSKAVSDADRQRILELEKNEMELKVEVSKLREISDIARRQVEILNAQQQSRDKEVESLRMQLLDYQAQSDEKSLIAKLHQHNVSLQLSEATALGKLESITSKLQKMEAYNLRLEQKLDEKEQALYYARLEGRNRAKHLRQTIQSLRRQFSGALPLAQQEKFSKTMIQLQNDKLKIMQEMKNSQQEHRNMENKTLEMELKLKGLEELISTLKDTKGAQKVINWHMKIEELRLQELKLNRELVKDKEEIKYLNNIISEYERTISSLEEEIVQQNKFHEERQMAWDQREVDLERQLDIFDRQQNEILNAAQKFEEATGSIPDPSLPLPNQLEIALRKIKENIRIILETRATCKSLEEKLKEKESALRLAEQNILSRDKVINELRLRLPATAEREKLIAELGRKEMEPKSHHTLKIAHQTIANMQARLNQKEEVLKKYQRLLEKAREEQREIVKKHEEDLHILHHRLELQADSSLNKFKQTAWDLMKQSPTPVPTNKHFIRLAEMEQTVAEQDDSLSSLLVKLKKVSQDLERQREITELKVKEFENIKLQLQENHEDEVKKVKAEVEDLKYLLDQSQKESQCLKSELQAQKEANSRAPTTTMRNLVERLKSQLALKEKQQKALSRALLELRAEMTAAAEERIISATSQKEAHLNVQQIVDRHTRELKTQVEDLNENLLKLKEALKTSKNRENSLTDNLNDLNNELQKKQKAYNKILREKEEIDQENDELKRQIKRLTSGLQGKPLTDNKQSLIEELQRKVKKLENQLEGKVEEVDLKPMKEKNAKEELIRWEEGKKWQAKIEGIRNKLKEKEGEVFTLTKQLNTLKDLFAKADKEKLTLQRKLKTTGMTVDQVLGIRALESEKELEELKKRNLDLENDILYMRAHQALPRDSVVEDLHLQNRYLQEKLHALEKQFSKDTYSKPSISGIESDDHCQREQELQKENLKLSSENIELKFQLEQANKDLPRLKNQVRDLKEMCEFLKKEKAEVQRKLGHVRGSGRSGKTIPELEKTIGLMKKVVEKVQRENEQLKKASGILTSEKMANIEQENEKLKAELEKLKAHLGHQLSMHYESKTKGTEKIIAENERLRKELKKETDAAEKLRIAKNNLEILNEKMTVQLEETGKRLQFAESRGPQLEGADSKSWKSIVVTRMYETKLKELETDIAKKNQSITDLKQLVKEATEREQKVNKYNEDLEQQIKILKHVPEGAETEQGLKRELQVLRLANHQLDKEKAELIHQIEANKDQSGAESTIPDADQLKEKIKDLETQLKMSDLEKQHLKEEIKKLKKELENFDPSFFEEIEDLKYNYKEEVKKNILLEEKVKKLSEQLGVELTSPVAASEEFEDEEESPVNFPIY
UniProt Q8WTW3: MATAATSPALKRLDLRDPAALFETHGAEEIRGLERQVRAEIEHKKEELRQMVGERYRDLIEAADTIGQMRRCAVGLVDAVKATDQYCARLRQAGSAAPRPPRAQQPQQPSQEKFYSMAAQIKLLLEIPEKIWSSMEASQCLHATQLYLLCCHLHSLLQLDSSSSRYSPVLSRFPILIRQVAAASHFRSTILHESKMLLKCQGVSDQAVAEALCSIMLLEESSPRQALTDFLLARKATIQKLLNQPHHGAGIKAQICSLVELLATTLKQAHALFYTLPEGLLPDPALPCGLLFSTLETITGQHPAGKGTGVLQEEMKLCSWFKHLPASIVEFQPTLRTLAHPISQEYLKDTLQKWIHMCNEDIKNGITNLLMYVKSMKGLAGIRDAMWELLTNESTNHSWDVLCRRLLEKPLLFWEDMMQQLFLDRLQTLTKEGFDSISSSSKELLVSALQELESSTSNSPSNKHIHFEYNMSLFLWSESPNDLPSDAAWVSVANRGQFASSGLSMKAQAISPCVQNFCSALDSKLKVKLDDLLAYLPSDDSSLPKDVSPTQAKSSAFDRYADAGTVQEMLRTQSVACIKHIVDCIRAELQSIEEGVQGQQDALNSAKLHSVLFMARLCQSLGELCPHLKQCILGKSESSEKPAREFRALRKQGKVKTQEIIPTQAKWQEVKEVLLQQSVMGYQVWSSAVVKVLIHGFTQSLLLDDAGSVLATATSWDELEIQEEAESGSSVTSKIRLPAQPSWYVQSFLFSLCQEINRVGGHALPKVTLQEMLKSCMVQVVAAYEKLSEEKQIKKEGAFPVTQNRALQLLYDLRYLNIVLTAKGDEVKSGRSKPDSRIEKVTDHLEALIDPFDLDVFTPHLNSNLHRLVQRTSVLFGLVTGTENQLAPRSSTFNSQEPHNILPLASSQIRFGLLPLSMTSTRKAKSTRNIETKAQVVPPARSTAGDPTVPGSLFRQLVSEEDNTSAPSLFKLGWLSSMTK
UniProt Q9P0S2: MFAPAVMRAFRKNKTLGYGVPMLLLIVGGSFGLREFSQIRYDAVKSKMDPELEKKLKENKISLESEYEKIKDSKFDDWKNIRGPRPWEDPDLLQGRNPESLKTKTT

These targets were tested with COc1ccc(Cn2ccc3cc(C)c(C(=O)NO)cc32)cc1 (assay: dose-dependent thermal stabilisation call (2D-TPP, DLPTP, 10% FDR) (binary (1 = stabilised)); higher = stabilised by the compound). Details: system: HL-60 intact cells; concentration range 0.04-10 µM.
Protocol: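 2D thermal proteome profiling in intact HL-60 cells treated with BRD-3811 (0, 0.04, 0.29, 2, 10 uM) for 90 min at 37 C, then heated 3 min at one of 12 temperatures (42-63.9 C). Soluble protein was quantified by TMT10 MS. The value is the DLPTP call of the paper: dose-dependent thermal stabilisation over all temperatures at 10% FDR (F-test of a dose-response against a flat model); one experiment, one call per tested protein.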
CORO1A (UniProt P31146) was tested, and the “dose-dependent thermal stabilisation call” value was inactive: 0. CHMP1A (UniProt Q9HD42) was tested, and the “dose-dependent thermal stabilisation call” value was inactive: 0. With COIL (UniProt P38432) the “dose-dependent thermal stabilisation call” value was inactive: 0. CLEC5A (UniProt Q9NY25) was tested, and the “dose-dependent thermal stabilisation call” value was inactive: 0. COX7C (UniProt P15954) was tested, and the “dose-dependent thermal stabilisation call” value was inactive: 0. In the case of CDC123 (UniProt O75794), the “dose-dependent thermal stabilisation call” value is reported as inactive: 0. In the case of CEP290 (UniProt O15078), the “dose-dependent thermal stabilisation call” value is reported as inactive: 0. COG1 (UniProt Q8WTW3) was tested, and the “dose-dependent thermal stabilisation call” value was inactive: 0. COX16 (UniProt Q9P0S2) was tested, and the “dose-dependent thermal stabilisation call” value was inactive: 0.
